From US20240279350A1
Substitutions are numbered along the chain they refer to. Numbers in names are those of the source. Results are given in words; binding and its absence hold for the method and conditions named. Some entries that bind do so weakly or less than the wild type. Blank lines part the entries; values can stand above or below the binder they belong to.

Chains of the proteins cited; added tags and fusions are not shown. Lines headed by an entry give the natural chain unless they say otherwise; changes in a name come on top. A line that says so, or that is headed by a name, gives the form on record, which may keep a tag or linker.
cynomolgus CD40 on HEK293 cells (G7PG38, form named): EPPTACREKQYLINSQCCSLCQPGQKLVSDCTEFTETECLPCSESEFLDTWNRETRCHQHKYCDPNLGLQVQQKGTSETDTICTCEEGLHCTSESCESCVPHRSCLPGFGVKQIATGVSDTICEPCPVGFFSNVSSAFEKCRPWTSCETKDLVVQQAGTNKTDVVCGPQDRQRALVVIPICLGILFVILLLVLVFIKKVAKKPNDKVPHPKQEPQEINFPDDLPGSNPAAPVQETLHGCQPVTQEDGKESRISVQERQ

What was measured:
[1] = target: cynomolgus CD40 on HEK293 cells (cynomolgus) (UniProt G7PG38); assay: flow cytometry on cynomolgus CD40-expressing HEK293 cells
[2] = target: cynomolgus CD40 on HEK293 cells (cynomolgus) (UniProt G7PG38); assay: flow cytometry on cynomolgus CD40-expressing HEK293 cells, 1 h at 4 °C, AF488-conjugated secondary antibody (MFI)

B1: mAb1 (Y32K/S77A) (antibody, human IgG2, kappa)
heavy: QVQLVQSGAEVKKPGASVKVSCKASGYTFTGKYMHWVRQAPGQGLEWMGWINPDSGGTNYAQKFQGRVTMTRDTSIATAYMELNRLRSDDTAVYYCARDQPLGYCTNGVCSYFDYWGQGTLVTVSSASTKGPSVFPLAPCSRSTSESTAALGCLVKDYFPEPVTVSWNSGALTSGVHTFPAVLQSSGLYSLSSVVTVPSSNFGTQTYTCNVDHKPSNTKVDKTVERKCCVECPPCPAPPVAGPSVFLFPPKPKDTLMISRTPEVTCVVVDVSHEDPEVQFNWYVDGVEVHNAKTKPREEQFNSTFRVVSVLTVVHQDWLNGKEYKCKVSNKGLPAPIEKTISKTKGQPREPQVYTLPPSREEMTKNQVSLTCLVKGFYPSDIAVEWESNGQPENNYKTTPPMLDSDGSFFLYSKLTVDKSRWQQGNVFSCSVMHEALHNHYTQKSLSLSPGK
light: DIQMTQSPSSVSASVGDRVTITCRASQGIYSWLAWYQQKPGKAPNLLIYTASTLQSGVPSRFSGSGSGTDFTLTISSLQPEDFATYYCQQANIFPLTFGGGTKVEIKRTVAAPSVFIFPPSDEQLKSGTASVVCLLNNFYPREAKVQWKVDNALQSGNSQESVTEQDSKDSTYSLSSTLTLSKADYEKHKVYACEVTHQGLSSPVTKSFNRGEC
binding [1]: binds | binding [2]: binds

B4: mAb2 (Y32K/S77P) (antibody, human IgG2, kappa, V domains shown)
VH: QVQLVQSGAEVKKPGASVKVSCKASGYTFTGKYMHWVRQAPGQGLEWMGWINPDSGGTNYAQKFQGRVTMTRDTSIPTAYMELNRLRSDDTAVYYCARDQPLGYCTNGVCSYFDYWGQGTLVTVSS
VL: DIQMTQSPSSVSASVGDRVTITCRASQGIYSWLAWYQQKPGKAPNLLIYTASTLQSGVPSRFSGSGSGTDFTLTISSLQPEDFATYYCQQANIFPLTFGGGTKVEIKR
binding [1]: binds

Continued, values first:

binding [1]: binds | binding [2]: binds
B2: mAb3 (Y32K) (antibody, human IgG2, kappa, V domains shown)
VH: B4 VH with P77S
VL: B4 VL

binding [1]: binds
B3: mAb4 (Y32R) (antibody, human IgG2, kappa, V domains shown)
VH: B4 VH with K32R, P77S
VL: B4 VL
